Experimental data from patent US8058314B2, “Conductance of improperly folded proteins through the secretory pathway and related methods for treating disease” (Yale University, priority 1999, dated 2011).
For at least one compound, name, drawing or mass did not settle the structure.

Legend:
ΔF508 CFTR mice = experiment: Nasal potential difference (NPD) in CF mice homozygous for the ΔF508 mutation; format: in vivo; conditions: nebulized 1 μM thapsigargin or 50 microM curcumin, 3 hours/day for 7-14 days
Text: Materials and Methods. CF mice, which were the kind gift of Mitch Drumm, have had the ΔF508 mutation introduced into their endogenous copies of the CFTR gene by homologous recombination and are homozygous for the ΔF508 mutation. Construction of these mice is described in Zeiher, G. B., et al., A mouse model for the delta F508 allele of cystic fibrosis. J. Clin. Invest. 96: 2051-2064, 1995, and additional studies of these mice are described in Steagall W K and Drumm M L, Stimulation of cystic fibrosis transmembrane conductance regulator-dependent short-circuit currents across Delta F508 murine intestines. Gastroenterology, 116(6):1379-88, 1999.
Nasal potential difference was measured essentially as described in Grubb, B. R., Vick, R. N., and Boucher, R. C., Hyperabsorption of Na^+ and raised Ca^2+-mediated Cl^− secretion in nasal epithelia of CF mice, Am. […]
After obtaining a stable baseline reading, infusion of Ringers solution was begun, and recording was initiated. After 5 mins of stable reading, the solution was changed successively to: (i) Ringer solution containing amiloride 10^−5 M; (ii) Ringer solution containing 0 mM chloride and 10^−5 M amiloride; (iii) Ringer solution containing 0 mM chloride, 10^−5 M amiloride, and 10^−5 M isoproterenol. NPD was recorded for each solution for 5 minutes of stable values. […]

ΔF508 CFTR = experiment: Immunofluorescence localization of CFTR in CFBE290− airway epithelial cells; format: cell-based, human; conditions: agent dissolved in media
Experimental: CFPAC and CFBE290^− epithelial cells were grown to confluence on 0.45 micron Transwell filter inserts (Corning Costar, Cambridge, Mass.) under the same conditions described for the short circuit current measurements. Prior to immunofluorescence analysis, filter grown cell monolayers were treated for 90 min with 1 μM thapsigargin at 37° C., present in both the apical and basolateral media compartments. The media was then changed to standard Iscove's growth medium or DMEM without thapsigargin, and cells were incubated for 2 or 4 hours at 37° C. Control cells underwent the same media changes but were not subjected to thapsigargin treatment.
Following the second incubation, the filter grown monolayers were washed once with phosphate buffered saline supplemented with calcium and magnesium (150 mM NaCl, 10 mM NaPi, pH 7.4, 1 mM MgCl2, 0.1 mM CaCl2), after which they were fixed for 10 minutes in −20° C. 100% methanol. […]
To ensure that the dose of thapsigargin received by the mice was sufficient to rescue ΔF508-CFTR in airway epithelial cells, we examined the effect of nebulized thapsigargin on CFBE290^− cells. […] Filter-grown CFBE290^− cells were exposed to 1 μM nebulized thapsigargin for 3 hours and the distribution of ΔF508-CFTR was evaluated by immunofluorescence.

SMILES	basal NPD of treated ΔF508 CF mice (ΔF508 CFTR mice)	basal NPD of treated ΔF508 CF mice (ΔF508 CFTR mice; listed as Curcumin)	ΔF508-CFTR surface delivery (ΔF508 CFTR)
COc1cc(/C=C/C(=O)CC(=O)/C=C/c2ccc(O)c(OC)c2)ccc1O [curcumin, 1,7-bis(4-hydroxy-e-methoxyphenol)-1,6-heptadiene-3,5-dione]	significantly smaller baseline NPD	dramatically reduce the basal NPD	
CC(=O)C1=C(O)[C@@H]2[C@H]3c4c[nH]c5cccc(c45)C[C@H]3C(C)(C)N2C1=O [cyclopiazonic acid]			able to recapitulate thapsigargin's capacity to induce ΔF508-CFTR surface delivery
